Laboratory results published in publication doi:10.1101/669812.
Read-outs that look alike come from different tables or passages of the source. These are yes or no findings as the source states them, for the method shown. In cells and extracts the contact can be indirect. Some binding calls cover weakened binding; strength is not graded here.

Sequences of proteins named here, by UniProt entry; tags and fusion partners are left off. Residues count along the entry.
UniProt Q7Z6A9, residues 31-289: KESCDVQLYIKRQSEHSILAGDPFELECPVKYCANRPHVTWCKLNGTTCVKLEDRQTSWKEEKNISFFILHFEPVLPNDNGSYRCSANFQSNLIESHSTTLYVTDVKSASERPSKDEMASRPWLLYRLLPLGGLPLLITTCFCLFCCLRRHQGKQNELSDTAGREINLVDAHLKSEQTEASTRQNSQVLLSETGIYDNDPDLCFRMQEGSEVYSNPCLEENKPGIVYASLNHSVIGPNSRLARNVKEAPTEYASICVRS
UniProt Q15116, residues 25-288: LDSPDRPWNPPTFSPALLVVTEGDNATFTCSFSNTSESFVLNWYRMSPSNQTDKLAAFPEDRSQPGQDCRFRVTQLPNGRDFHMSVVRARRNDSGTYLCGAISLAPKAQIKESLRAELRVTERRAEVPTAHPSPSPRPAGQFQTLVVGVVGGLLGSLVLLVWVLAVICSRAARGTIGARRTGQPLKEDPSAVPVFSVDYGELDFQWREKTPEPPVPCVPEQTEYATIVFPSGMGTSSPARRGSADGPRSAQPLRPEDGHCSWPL
UniProt P10747, residues 19-220: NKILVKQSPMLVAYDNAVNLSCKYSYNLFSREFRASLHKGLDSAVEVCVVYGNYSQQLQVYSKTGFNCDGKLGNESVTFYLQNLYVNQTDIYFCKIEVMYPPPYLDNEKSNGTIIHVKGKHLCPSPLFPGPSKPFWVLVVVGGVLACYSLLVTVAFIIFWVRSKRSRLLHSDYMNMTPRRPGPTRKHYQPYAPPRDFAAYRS
UniProt P62993: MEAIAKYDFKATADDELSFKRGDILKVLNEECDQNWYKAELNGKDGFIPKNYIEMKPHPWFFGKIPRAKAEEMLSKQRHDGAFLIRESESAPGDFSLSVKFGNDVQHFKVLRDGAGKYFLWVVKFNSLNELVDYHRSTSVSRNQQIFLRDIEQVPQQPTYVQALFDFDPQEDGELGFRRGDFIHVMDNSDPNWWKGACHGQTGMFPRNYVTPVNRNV
UniProt P43403: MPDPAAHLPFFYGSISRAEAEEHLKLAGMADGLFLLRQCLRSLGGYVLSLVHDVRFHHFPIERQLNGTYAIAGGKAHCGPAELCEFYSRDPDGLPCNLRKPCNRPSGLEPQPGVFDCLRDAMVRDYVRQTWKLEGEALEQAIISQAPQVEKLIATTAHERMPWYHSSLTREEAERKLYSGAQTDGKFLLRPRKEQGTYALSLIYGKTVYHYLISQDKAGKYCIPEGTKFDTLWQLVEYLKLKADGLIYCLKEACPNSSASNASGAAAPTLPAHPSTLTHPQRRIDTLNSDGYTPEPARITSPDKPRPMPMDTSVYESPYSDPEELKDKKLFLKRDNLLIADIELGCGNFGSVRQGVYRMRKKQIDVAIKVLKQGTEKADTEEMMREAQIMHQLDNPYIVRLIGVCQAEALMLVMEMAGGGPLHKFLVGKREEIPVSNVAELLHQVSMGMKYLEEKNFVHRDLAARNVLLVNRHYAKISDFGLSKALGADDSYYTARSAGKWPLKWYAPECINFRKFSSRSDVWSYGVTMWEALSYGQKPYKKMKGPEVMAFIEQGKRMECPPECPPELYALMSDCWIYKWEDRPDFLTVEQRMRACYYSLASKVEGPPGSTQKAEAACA
UniProt P27986: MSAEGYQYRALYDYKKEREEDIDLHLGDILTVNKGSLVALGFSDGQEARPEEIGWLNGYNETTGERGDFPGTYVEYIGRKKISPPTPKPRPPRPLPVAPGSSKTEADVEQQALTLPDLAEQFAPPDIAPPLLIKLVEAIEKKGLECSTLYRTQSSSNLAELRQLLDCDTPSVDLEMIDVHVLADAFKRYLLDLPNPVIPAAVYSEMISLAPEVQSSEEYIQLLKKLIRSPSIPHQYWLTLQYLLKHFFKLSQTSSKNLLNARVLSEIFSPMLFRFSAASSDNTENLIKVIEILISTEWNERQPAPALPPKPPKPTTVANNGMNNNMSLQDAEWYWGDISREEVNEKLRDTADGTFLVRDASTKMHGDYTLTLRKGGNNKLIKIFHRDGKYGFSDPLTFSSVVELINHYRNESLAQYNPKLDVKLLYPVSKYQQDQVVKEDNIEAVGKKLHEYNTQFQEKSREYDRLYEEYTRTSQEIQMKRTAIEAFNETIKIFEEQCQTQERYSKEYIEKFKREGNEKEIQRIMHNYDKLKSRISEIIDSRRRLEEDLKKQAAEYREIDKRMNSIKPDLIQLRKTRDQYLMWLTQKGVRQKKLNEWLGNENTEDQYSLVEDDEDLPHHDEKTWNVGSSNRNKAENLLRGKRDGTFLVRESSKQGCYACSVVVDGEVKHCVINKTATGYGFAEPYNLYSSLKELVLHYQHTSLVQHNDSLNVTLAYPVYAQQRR

B1: SAP (protein, UniProt O60880 1-128)
chain: MDAVAVYHGKISRETGEKLLLATGLDGSYLLRDSESVPGVYCLCVLYHGYIYTYRVSQTETGSWSAETAPGVHKRYFRKIKNLISAFQKPDQGIVIPLQYPVEKKSSARSTQGTTGIREDPDVCLKAP

Experiments:
Experiment in all cases: co-IP
[1] = target: BTLA (WT)-mGFP (UniProt Q7Z6A9)
[2] = target: PD-1 (WT)-mGFP (UniProt Q15116)
[3] = target: CD28 (human (endogenous in Jurkat)) (UniProt P10747)
[4] = target: BTLA (WT)-mGFP (UniProt Q7Z6A9); remark: listed apart in the source

Molecule	binding [1]	binding [2]	binding [3]	binding [4]
GRB2 (from UniProt P62993 1-217)	no binding	–	–	–
ZAP70 (from UniProt P43403 1-619) (enzyme)	no binding	no binding	–	–
p85α, the regulatory subunit of PI3 kinases (from UniProt P27986 1-724)	no binding	–	binds	–
B1	–	–	–	no binding
